PubChem BioAssay AID1671195, Yale University, 2021
Purpose: 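Genes whose knockdown alters LDL uptake in liver cancer cells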 (primary screen). System: human Huh7 hepatoma cells. Reagent: siRNA pool against human genes, 18 nM. Time to read-out: about 2 to 2.5 days of knockdown, then 8 h LDL uptake. Conditions: DiI-labelled LDL at 30 µg/ml for 8 h, in lipoprotein-deficient serum medium. Measured: 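Fluorescent LDL signal imaged in cells, scaled to the plate median, robust z-score for each replicate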. Scale: robust z-score: higher = more LDL uptake after knockdown. Active means: 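Active when two or more replicates show a robust z-score above 2 or below -2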.
Here is a random part of about 22,000 reagents tested. Of all reagents, about 1,510 (6.9%) were called active. 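Active includes knockdowns raising or lowering LDL uptake; positive z-scores mean more uptake, negative mean less.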

Gene | robust z-score, replicate 1 | robust z-score, replicate 2 | robust z-score, replicate 3 | Call
SSTR5 (somatostatin receptor 5) | 0.11 | -0.477 | 0.0326 | inactive
ILK (integrin linked kinase) | -0.747 | -0.719 | -0.635 | inactive
TBX10 (T-box transcription factor 10) | 0.0846 | 1.63 | 0.336 | inactive
NLRP6 (NLR family pyrin domain containing 6) | 1.39 | 2.16 | 1.39 | inactive
TCN2 (transcobalamin 2) | -1.1 | -1.03 | -0.166 | inactive
LINC01761 (long independently transcribed non-coding RNA 1761) | 0.093 | -0.172 | -0.645 | inactive
LOC400688 (retired record) | -0.0598 | 0.0684 | -0.167 | inactive
SUN3 (Sad1 and UNC84 domain containing 3) | -1.2 | -1.24 | -1.29 | inactive
SSTR3 (somatostatin receptor 3) | -0.82 | -1.13 | -0.769 | inactive
MTHFD1 | 0.889 | 0.334 | 0.776 | inactive
CALCA (calcitonin related polypeptide alpha) | 0.477 | 0.426 | -0.197 | inactive
LOC387937 (retired record) | 0.244 | -0.147 | -0.0847 | inactive
NUDT1 (nudix hydrolase 1) | 0.0661 | 0.0331 | 0.394 | inactive
LOC389786 (retired record) | 0.0664 | 0.286 | -0.206 | inactive
TAC4 (tachykinin precursor 4) | 1.55 | 1.45 | 1.23 | inactive
LINC02897 (long independently transcribed non-coding RNA 2897) | 4.38 | 3.95 | 4.58 | active
CARD8 (caspase recruitment domain family member 8) | -0.283 | -0.759 | -0.621 | inactive
MTMR9 (myotubularin related protein 9) | -1.85 | -2.13 | -1.92 | active
TMLHE (trimethyllysine hydroxylase, epsilon) | 1.99 | 1.3 | 1.95 | inactive
DGKG (diacylglycerol kinase gamma) | 0.505 | -0.773 | -0.232 | inactive
WNT5B (Wnt family member 5B) | -0.924 | -0.322 | -0.369 | inactive
KLF15 (KLF transcription factor 15) | -1.57 | -1.67 | -1.9 | inactive
ZSCAN31 (zinc finger and SCAN domain containing 31) | -0.7 | -0.837 | -0.321 | inactive
TSPAN12 (tetraspanin 12) | -0.551 | -1.2 | -0.523 | inactive
CEP85L (centrosomal protein 85L) | 2.88 | 4.23 | 4.15 | active
LINC01555 (long independently transcribed non-coding RNA 1555) | 0.386 | 0.0702 | 0.0103 | inactive
CT83 (cancer/testis antigen 83) | -0.512 | -0.624 | -0.675 | inactive
NTRK2 (neurotrophic receptor tyrosine kinase 2) | -1.19 | -0.562 | -1.66 | inactive
DGKD (diacylglycerol kinase delta) | -0.478 | -0.885 | -0.765 | inactive
LOC388248 (Rho GTPase activating protein 23 pseudogene) | -0.449 | -0.676 | -0.582 | inactive
MYBBP1A (MYB binding protein 1a) | 0.182 | -0.635 | -0.674 | inactive
LOC441230 (retired record) | 0.269 | -0.358 | -0.016 | inactive

Taken from above.
For “robust z-score, replicate 2”, CEP85L (centrosomal protein 85L) has 4.23
Under “robust z-score, replicate 3”, WNT5B (Wnt family member 5B) shows -0.369
TBX10 (T-box transcription factor 10), robust z-score, replicate 1: 0.0846
Under “robust z-score, replicate 1”, SSTR3 (somatostatin receptor 3) shows -0.82
Result of TAC4 (tachykinin precursor 4) under “robust z-score, replicate 2”: 1.45
Value of MYBBP1A (MYB binding protein 1a) in “robust z-score, replicate 3”: -0.674

More entries:
Gene | robust z-score, replicate 1 | robust z-score, replicate 2 | robust z-score, replicate 3 | Call
RAB3B (RAB3B, member RAS oncogene family) | 1.66 | 1.33 | 1.44 | inactive
RNF223 (ring finger protein 223) | -0.136 | 0.718 | 0.183 | inactive
CELA3B (chymotrypsin like elastase 3B) | -0.192 | 0.318 | -0.296 | inactive
TRAF3IP2 (TRAF3 interacting protein 2) | -0.111 | 0.516 | 0.597 | inactive
ENOX1 (ecto-NOX disulfide-thiol exchanger 1) | 0.235 | -0.566 | -0.0226 | inactive
LOC441016 (retired record) | 4.19 | 4.26 | 4.16 | active
TERB2 (telomere repeat binding bouquet formation protein 2) | -0.716 | -1.79 | -1.03 | inactive
ZNF629 (zinc finger protein 629) | 0.657 | 2.66 | -0.851 | inactive
BTN1A1 (butyrophilin subfamily 1 member A1) | 0.534 | 0.139 | 0.349 | inactive
VLDLR-AS1 (VLDLR antisense RNA 1) | 1.35 | -0.0176 | 0.168 | inactive
ZNF793 (zinc finger protein 793) | -1.54 | -1.66 | -1.29 | inactive
RBP2 (retinol binding protein 2) | 0.924 | 1.16 | 0.816 | inactive
LOC402059 (retired record) | -0.406 | 0.851 | 0.769 | inactive
TP53TG1 (TP53 target 1) | 0.488 | -0.567 | 1.09 | inactive
MFAP3 (microfibril associated protein 3) | -1.15 | -0.961 | -1.59 | inactive
MYL5 (myosin light chain 5) | 1.51 | 2.22 | 0.113 | inactive
MAN1A2 (mannosidase alpha class 1A member 2) | 0.203 | -0.624 | -1.04 | inactive
RDUR (RIG-I dependent antiviral response regulator RNA) | -1.2 | -1.45 | -1.18 | inactive
PLXNB1 (plexin B1) | 0.022 | 0.0445 | 0.78 | inactive
CATSPERE (catsper channel auxiliary subunit epsilon) | 7.8 | 8.84 | 7.01 | active
NXPH2 (neurexophilin 2) | -1.17 | -1.73 | -0.312 | inactive
LOC441110 (retired record) | -0.523 | -0.999 | -0.439 | inactive
GOLIM4 (golgi integral membrane protein 4) | 1.1 | -0.96 | 0.34 | inactive
PELP1 (proline, glutamate and leucine rich protein 1) | 2.09 | 0.638 | 1.2 | inactive
ATP2B1 (ATPase plasma membrane Ca2+ transporting 1) | 0.367 | -0.0506 | 0.197 | inactive
CYP39A1 (cytochrome P450 family 39 subfamily A member 1) | 0.363 | 0.475 | 0.903 | inactive
PRAC1 (PRAC1 small nuclear protein) | 0.163 | 0.136 | 0.182 | inactive
NXF5 (nuclear RNA export factor 5) | 1.61 | 1.03 | -0.12 | inactive
FYN (FYN proto-oncogene, Src family tyrosine kinase) | 1.47 | 1.25 | 1.47 | inactive
FGFRL1 (fibroblast growth factor receptor like 1) | 1.05 | 1.4 | 1.44 | inactive
EFNA3 (ephrin A3) | -1.66 | -1.2 | -2.27 | inactive
HHIP (hedgehog interacting protein) | -0.884 | -1.11 | -0.0691 | inactive
PSMA5 (proteasome 20S subunit alpha 5) | -0.000952 | -0.242 | 0.404 | inactive
C1GALT1 | -0.29 | 0.227 | -0.468 | inactive
LYPD4 (LY6/PLAUR domain containing 4) | 0.537 | 0.751 | 0.508 | inactive
KYAT3 (kynurenine aminotransferase 3) | 0.252 | -0.166 | 0.179 | inactive
GAPDHP22 (glyceraldehyde 3 phosphate dehydrogenase pseudogene 22) | 1.26 | 0.917 | 1.82 | inactive
ZFP92 (ZFP92 zinc finger protein) | -0.628 | -1.15 | -0.727 | inactive
OR2AE1 (olfactory receptor family 2 subfamily AE member 1) | -0.854 | -0.344 | -0.366 | inactive
AQP4 (aquaporin 4) | 0.404 | 0.219 | -0.376 | inactive
CHRNG (cholinergic receptor nicotinic gamma subunit) | -1.59 | -1.77 | -1.61 | inactive
FOXQ1 (forkhead box Q1) | 2.27 | 2.36 | 3.18 | active
PTPN13 (protein tyrosine phosphatase non-receptor type 13) | 1.38 | 0.885 | 1.16 | inactive
CCDC178 (coiled-coil domain containing 178) | -0.736 | -0.0121 | -0.376 | inactive
PAX2 (paired box 2) | -0.16 | -0.631 | 0.719 | inactive
PHYHD1 (phytanoyl-CoA dioxygenase domain containing 1) | 1.63 | 1.22 | 1.28 | inactive
VNN1 (vanin 1) | 0.523 | 0.903 | 1.09 | inactive
TPH2 (tryptophan hydroxylase 2) | -0.871 | -1.15 | -1.78 | inactive
ZC3H11A (zinc finger CCCH-type containing 11A) | 1.39 | 1.4 | 1.52 | inactive
MED18 (mediator complex subunit 18) | 0.878 | -0.225 | 4 | inactive
CSF1 (colony stimulating factor 1) | -0.533 | 0.777 | -0.344 | inactive
PEX1 (peroxisomal biogenesis factor 1) | -0.987 | -0.265 | -0.256 | inactive
ARL6IP6 (ARF like GTPase 6 interacting protein 6) | -0.335 | 1.01 | 0.363 | inactive
ZNF461 (zinc finger protein 461) | -0.315 | -0.495 | -0.12 | inactive
SGK3 (serum/glucocorticoid regulated kinase family member 3) | 3.41 | 1.53 | 3.53 | active
